Test results published in patent publication US20230304097A1, “PREDICTING CANCER RELAPSE AND TREATMENT OF CANCER DISEASES” (priority 2020, published 2023).
At least one compound was matched to its structure with a doubt left.

Assays:
GTS tumors = assay: Dox diet in tumor-bearing GTS transgenic mice (recurrence model); type: in vivo, mouse
GTML cells [1] = assay: Long term proliferation with dox treatment, GTML cells; type: cell-based, mouse
pre-GTS cells = assay: Long term proliferation with dox treatment, pre-GTS cells; type: cell-based, mouse; settings: dox for 5 days; after 12-14 days in culture; pre-GT20 and pre-GT21
GTML tumors = assay: Dox diet in tumor-bearing GTML transgenic mice; type: in vivo, mouse; settings: dox diet for 30 days; mice with large tumors
GTML cells [2] = assay: RT-PCR of SOX9 after in vitro dox treatment; type: cell-based, mouse; settings: 48 h dox treatment in vitro; TetOFF MYCN suppression

C[C@H]1c2cccc(O)c2C(=O)C2=C(O)[C@]3(O)C(=O)C(C(N)=O)=C(O)[C@@H](N(C)C)[C@@H]3[C@@H](O)[C@@H]21 [dox, doxycycline hyclate]
time to recurrence after dox removal in GTS mice (GTS tumors; 30 day dox diet, n=24): 45 up to 120 | tumor recurrence in GTS mice after dox removal (GTS tumors; 30 day dox diet, n=24): all of the mice (n=24) developed recurrences | tumor outcome in GTS mice, continuous dox (GTS tumors; continually treated with dox for 6 months, n=5): tumor regression and no recurrences | viability of GTML tumor cells (GTML cells [1]; 48 h after dox treatment): more than halved | proliferation of GTML cells after temporary dox treatment (GTML cells [1]; dox for 5 days, after 8-10 days in culture): completely stopped proliferating | proliferation of pre-GTS cells after temporary dox treatment (pre-GTS cells): started to recover | tumor outcome in GTML mice (GTML tumors): completely eradicated | SOX9 expression levels (increase) (GTML cells [2]): more than four-fold
